# Test results from patent publication US20250368742A1.
# Protein sequences, listed by entry. Tags and fused reporters are not part of them. Lines headed by an entry give the natural chain unless they say otherwise; changes in a name come on top. Residues count along the entry.
# UniProt P26718, residues 78-216: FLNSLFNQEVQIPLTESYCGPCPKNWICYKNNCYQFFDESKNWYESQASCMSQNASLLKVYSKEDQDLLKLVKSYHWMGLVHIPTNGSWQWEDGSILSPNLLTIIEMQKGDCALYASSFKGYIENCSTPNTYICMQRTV
# UniProt Q29983: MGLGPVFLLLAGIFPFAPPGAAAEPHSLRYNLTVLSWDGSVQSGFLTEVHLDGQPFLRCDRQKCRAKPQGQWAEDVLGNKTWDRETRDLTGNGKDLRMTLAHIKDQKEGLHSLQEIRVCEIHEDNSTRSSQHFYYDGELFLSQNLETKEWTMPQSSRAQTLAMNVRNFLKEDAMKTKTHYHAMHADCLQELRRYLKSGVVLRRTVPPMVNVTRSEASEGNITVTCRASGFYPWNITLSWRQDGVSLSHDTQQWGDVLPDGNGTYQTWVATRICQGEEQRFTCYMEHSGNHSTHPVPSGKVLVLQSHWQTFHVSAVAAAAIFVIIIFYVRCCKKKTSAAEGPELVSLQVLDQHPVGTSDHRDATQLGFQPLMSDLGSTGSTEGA
# No constants are given. Whether binding was seen depends on the method and setting. A result given as binding can be weak or reduced; the word gives no strength.
# How the values were obtained:
# [1] = biological target: NKG2D-His (UniProt P26718); assay: ELISA, FIG. 10C
# [2] = biological target: NKG2D-His (UniProt P26718); assay: ELISA, antibody-captured shed MICA004, NKG2D-His detected with anti-His-HRP, FIG. 10C
# [3] = biological target: NKG2D-His (UniProt P26718); assay: ELISA, antibody-captured shed MICA002, NKG2D-His detected with anti-His-HRP, FIG. 10B
# [4] = biological target: NKG2D-His (UniProt P26718); assay: ELISA, FIG. 10B
binding [1],binding [2],binding [3],binding [4],Substance
binds,binds,–,–,shed MICA004 polypeptide (from UniProt Q29983) (ligand)
–,–,binds,binds,shed MICA002 polypeptide (from UniProt Q29983) (ligand)
